According to PMC11374718, “Unlocking opioid neuropeptide dynamics with genetically encoded biosensors” (Nature Neuroscience, 2024):
Values joined by “and” are separate entries in the source; they are usually repeats but may differ in a detail not shown here. Equal entries are not always repeated.

Conditions: dStr slices; n = 7 slices from 4 mice; κLight1.2a readout

## CC[C@H](C)[C@H](NC(=O)[C@H](CCCNC(=N)N)NC(=O)[C@H](CCCNC(=N)N)NC(=O)[C@H](CC(C)C)NC(=O)[C@H](Cc1ccccc1)NC(=O)CNC(=O)CNC(=O)[C@@H](N)Cc1ccc(O)cc1)C(=O)O [DynA8, dynorphin A1-8]
  apparent (effective) diffusion coefficient D*: 1.4 ± 0.4 μm^2 s^−1 and 1.4 μm^2 s^−1
